In publication PMC11602133:
Results are given in words; binding and its absence hold for the method and conditions named. For some assays here: Binding calls can cover weak binding; strength is not graded here.

Chains of the proteins cited; added tags and fusions are not shown.
UniProt Q39081: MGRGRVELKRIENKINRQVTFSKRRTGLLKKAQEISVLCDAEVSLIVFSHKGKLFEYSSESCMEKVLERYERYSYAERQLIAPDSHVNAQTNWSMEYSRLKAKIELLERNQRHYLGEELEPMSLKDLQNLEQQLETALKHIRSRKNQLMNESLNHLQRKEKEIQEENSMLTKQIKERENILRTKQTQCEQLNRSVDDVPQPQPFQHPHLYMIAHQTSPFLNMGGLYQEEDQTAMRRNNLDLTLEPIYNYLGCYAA
UniProt Q40168: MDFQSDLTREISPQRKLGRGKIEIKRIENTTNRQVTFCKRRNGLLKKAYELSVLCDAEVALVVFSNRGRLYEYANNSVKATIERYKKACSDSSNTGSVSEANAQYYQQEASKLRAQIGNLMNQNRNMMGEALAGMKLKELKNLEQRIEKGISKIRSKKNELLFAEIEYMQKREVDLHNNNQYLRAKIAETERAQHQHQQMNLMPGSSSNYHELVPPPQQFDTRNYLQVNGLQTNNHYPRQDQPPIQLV
UniProt P17839: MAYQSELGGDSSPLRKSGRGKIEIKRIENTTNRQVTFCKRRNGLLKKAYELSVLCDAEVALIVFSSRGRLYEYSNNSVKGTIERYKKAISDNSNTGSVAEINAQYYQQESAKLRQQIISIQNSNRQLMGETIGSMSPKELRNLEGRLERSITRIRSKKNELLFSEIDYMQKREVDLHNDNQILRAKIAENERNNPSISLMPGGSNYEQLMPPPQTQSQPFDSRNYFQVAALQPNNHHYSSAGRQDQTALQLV

What was measured:
Test in all cases: two-hybrid; yeast two-hybrid, pDEST22 (AD) and pDEST32 (BD) fusions, strains PJ69-4A and PJ69-4alpha, -LWH dropout medium with 3-AT (5 mM in Figure 2A), room temperature, both orientations where possible
[1] = molecular target: … 4 (SEP4), BD fusion (Arabidopsis) (UniProt P29383)
[2] = molecular target: CAULIFLOWER (CAL), BD fusion (Arabidopsis) (UniProt Q39081)
[3] = molecular target: TOMATO AG 1 (TAG1), yeast two-hybrid fusion (tomato) (UniProt Q40168)
[4] = molecular target: … 3 (SEP3), yeast two-hybrid fusion (Arabidopsis) (UniProt O22456)
[5] = molecular target: AGAMOUS (AG), yeast two-hybrid fusion (Arabidopsis) (UniProt P17839)

Row | binding [1] | binding [2] | binding [3] | binding [4] | binding [5] | Substance
1 | no binding | no binding | – | – | – | SEP3_S59S60S61 (SEP3 with shortened loop), yeast two-hybrid fusion (from UniProt O22456)
2 | – | – | binds | binds | binds | tomato FUL2, yeast two-hybrid fusion (from UniProt A0A3Q7FTD8)
